Test results from the supplement of paper PMC10849652.
Some of the results follow.

The chains behind the UniProt entries cited, without tags or fusion partners. Where a name states a change or a piece, a line headed by the entry shows the natural chain unless it says otherwise.
UniProt Q15283: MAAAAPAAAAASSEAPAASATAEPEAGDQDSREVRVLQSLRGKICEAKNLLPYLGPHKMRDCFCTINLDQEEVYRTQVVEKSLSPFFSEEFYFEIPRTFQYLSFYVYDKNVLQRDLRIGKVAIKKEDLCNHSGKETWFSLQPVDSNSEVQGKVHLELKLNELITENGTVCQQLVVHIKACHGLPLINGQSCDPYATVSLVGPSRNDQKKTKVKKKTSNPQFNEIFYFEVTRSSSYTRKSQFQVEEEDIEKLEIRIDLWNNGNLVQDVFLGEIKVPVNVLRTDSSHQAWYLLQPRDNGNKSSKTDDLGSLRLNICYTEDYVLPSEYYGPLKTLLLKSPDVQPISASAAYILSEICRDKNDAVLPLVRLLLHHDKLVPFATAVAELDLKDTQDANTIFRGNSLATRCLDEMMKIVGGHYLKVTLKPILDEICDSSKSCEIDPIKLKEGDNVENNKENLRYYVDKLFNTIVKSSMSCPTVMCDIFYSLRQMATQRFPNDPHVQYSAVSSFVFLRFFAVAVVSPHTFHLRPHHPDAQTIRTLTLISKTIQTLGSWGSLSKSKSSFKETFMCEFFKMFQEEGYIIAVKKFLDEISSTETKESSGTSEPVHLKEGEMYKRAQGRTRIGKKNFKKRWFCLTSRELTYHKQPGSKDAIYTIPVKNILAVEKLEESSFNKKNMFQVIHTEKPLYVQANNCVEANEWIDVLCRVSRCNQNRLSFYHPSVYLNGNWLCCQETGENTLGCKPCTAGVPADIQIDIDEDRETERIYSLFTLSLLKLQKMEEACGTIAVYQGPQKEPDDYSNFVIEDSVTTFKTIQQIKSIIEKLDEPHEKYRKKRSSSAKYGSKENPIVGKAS
UniProt Q15291, whole entry, looked up: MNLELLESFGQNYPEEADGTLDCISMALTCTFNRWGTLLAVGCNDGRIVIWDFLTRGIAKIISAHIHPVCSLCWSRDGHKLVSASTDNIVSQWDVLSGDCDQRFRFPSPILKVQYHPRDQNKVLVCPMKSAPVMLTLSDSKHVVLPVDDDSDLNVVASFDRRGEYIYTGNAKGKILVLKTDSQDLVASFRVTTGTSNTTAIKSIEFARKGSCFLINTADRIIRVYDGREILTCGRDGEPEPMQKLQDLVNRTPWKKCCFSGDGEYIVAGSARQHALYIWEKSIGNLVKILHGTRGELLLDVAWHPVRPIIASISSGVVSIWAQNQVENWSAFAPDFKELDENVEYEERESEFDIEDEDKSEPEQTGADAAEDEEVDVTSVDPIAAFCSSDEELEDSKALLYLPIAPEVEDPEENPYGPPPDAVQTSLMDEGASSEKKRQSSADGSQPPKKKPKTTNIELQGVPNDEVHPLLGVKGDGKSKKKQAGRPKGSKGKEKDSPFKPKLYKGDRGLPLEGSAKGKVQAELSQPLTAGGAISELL
UniProt Q9BTL3: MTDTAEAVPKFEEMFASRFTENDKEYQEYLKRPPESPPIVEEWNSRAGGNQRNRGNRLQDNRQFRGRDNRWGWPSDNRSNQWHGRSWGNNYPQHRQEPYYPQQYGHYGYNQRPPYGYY
UniProt Q09028, whole entry, looked up: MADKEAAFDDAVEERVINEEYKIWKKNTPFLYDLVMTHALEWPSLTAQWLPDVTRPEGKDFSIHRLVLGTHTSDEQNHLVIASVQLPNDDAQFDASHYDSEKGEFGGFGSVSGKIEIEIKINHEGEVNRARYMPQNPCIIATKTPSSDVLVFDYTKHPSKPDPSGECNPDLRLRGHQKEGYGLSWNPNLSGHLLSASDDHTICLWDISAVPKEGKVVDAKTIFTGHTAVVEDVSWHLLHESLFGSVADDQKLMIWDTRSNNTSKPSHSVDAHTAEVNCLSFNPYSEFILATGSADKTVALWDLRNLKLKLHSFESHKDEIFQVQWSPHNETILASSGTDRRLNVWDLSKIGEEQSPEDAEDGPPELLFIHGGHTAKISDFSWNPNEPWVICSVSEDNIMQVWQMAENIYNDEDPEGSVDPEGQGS
UniProt Q9H477: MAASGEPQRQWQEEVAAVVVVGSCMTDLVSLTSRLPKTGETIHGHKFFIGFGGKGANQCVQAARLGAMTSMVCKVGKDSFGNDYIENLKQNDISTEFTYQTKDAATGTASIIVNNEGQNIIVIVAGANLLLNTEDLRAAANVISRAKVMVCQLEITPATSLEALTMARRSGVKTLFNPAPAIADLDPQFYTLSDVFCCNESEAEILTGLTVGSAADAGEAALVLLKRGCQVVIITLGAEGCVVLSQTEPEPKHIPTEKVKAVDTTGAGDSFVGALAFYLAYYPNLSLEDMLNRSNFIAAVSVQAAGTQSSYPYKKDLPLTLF
UniProt Q9H5N1: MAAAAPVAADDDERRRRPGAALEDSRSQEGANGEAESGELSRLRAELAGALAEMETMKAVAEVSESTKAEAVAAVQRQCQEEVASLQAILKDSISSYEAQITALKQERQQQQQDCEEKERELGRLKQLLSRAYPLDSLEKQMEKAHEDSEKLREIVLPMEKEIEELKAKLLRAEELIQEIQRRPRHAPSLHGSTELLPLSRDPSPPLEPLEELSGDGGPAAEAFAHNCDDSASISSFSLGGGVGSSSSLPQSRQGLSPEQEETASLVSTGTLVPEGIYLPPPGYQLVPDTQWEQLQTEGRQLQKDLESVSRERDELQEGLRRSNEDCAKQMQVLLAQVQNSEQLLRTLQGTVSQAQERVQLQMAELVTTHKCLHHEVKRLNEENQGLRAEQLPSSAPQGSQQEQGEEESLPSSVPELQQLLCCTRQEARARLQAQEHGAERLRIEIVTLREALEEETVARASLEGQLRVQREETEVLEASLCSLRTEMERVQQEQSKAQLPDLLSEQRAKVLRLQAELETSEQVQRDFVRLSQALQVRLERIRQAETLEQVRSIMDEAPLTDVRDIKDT
UniProt Q96D70: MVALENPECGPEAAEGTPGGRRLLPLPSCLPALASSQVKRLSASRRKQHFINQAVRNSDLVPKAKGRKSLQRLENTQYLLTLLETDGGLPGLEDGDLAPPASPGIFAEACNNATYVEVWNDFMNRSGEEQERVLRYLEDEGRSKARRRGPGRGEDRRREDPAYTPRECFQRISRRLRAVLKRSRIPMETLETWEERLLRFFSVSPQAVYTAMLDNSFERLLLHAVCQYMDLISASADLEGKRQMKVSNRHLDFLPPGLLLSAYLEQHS
UniProt Q86X27: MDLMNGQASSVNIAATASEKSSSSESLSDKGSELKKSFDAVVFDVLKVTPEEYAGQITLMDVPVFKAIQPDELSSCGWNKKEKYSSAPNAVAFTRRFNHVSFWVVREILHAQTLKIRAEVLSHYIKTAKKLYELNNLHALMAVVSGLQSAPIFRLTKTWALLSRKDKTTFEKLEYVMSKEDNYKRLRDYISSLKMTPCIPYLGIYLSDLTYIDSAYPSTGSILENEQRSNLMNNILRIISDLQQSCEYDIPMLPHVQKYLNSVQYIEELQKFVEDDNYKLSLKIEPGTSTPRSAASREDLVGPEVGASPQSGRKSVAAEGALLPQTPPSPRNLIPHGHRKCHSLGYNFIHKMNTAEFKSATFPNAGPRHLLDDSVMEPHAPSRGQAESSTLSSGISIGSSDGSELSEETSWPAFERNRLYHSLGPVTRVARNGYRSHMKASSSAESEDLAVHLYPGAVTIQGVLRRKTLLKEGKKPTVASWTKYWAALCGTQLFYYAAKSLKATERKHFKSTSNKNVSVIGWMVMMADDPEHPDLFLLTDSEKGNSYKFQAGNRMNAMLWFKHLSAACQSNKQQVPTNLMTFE
UniProt Q86WH2: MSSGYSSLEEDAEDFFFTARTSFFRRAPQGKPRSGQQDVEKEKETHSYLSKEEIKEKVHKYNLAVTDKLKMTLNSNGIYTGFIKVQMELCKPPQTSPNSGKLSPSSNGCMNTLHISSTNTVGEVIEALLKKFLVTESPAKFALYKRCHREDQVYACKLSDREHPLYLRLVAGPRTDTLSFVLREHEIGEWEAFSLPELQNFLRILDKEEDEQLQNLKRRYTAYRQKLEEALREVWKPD
UniProt O75943: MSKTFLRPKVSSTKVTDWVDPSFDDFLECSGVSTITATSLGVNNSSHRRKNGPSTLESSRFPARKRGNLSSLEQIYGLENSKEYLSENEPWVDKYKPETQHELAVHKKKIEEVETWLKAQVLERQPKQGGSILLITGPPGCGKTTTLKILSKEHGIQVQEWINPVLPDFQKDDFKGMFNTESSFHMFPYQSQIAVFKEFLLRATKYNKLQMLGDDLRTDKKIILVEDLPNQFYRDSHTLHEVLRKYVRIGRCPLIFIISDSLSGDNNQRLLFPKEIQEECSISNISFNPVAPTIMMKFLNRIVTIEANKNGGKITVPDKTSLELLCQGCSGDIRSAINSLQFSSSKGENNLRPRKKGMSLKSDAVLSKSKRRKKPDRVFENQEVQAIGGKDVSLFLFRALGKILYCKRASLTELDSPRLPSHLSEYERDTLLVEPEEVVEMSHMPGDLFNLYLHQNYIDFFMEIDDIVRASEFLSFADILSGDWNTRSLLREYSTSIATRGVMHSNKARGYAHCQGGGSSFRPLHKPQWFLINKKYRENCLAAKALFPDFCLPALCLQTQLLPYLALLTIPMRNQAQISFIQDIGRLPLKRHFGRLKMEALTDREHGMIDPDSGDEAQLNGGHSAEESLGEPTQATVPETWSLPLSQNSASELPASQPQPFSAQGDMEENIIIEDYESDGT
UniProt Q9BYM8: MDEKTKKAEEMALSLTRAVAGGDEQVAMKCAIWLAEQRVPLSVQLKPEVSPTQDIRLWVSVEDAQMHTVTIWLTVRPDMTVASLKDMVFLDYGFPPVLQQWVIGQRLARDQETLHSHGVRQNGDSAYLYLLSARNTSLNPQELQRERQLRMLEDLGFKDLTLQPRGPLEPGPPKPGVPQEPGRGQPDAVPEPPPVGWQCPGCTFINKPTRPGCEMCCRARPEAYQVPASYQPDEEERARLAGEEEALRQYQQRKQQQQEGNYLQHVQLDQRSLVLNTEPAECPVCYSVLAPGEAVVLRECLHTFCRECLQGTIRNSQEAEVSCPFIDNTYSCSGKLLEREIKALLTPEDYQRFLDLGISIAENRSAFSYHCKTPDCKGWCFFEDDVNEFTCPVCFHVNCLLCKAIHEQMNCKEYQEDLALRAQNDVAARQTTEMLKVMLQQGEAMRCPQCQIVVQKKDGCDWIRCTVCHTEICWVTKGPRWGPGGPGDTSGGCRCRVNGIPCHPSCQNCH
UniProt Q15311: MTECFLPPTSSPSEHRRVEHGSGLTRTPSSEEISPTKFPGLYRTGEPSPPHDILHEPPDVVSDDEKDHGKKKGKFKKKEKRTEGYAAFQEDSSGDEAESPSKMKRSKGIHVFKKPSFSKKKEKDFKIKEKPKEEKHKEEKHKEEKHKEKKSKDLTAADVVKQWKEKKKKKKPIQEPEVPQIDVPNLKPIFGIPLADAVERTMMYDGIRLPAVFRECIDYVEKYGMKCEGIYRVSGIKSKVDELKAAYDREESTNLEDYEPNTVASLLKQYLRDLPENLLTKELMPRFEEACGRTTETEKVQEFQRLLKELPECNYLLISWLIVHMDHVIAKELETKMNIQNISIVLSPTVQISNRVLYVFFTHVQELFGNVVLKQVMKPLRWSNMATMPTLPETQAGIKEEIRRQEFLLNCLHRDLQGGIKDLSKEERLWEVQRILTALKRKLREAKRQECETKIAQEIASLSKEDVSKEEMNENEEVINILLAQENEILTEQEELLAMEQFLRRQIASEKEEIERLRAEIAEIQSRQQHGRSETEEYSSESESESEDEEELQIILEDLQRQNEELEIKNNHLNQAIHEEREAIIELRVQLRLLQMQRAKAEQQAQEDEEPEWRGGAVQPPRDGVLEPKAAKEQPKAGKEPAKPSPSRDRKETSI

Columns and labels:
Test in all cases: log2 fold change, soluble protein after heating vs DMSO (PISA); higher = thermal stabilisation; K562 cells, 10 uM, 30 min; active = over 0.2 and 3.5 SD of the protein, either way, in both replicates (recomputed)
[1] = compound: CC1=C(C=C(C=C1)NC(=O)C2=CC(=CC=C2)C(C)(C)C#N)NC3=CC4=C(C=C3)N=CN(C4=O)C
Procedure, shortened: (§1)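 Values are thermal stability changes relative to control samples and are taken from duplicates. They are stated as log2 fold changes. Before quantification by TMTpro 16plex LC-MS/MS with equalised channel sums, K562 cells at 2×10^6 cells/mL were treated with 10 μM compound for 30 min, heated in aliquots for 3 min across 48°C-58°C, pooled, extracted in PBS with 0.5% NP-40 at 4°C, and centrifuged at 21,000xg for 90 min to give the soluble supernatant.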

[2] = compound: CC1=C(C=C(C=C1)NC(=O)C2=CC(=CC=C2)N(C)C)NC(=O)C3=CC=C(C=C3)O
Procedure, shortened: as §1

[3] = compound: CC1=CC=C(C=C1)SC2=C3C=C(SC3=CN=C2)C(=O)N
Procedure, shortened: as §1

[4] = compound: CC1=NC(=CC=C1)C2=C(N=C(N2)C(C)(C)C)C3=CC4=NC=CN=C4C=C3
Procedure, shortened: as §1

[5] = compound: CCCCN(Cc1ccc(C(=O)NO)cc1)C(=O)Nc1ccccc1 [Nexturastat A]
Procedure, shortened: as §1

[6] = compound: CCCS(=O)(=O)Nc1ccc(F)c(C(=O)c2c[nH]c3ncc(-c4ccc(Cl)cc4)cc23)c1F [vemurafenib]
Procedure, shortened: as §1

[7] = compound: CCCS(=O)(=O)Nc1ccc(F)c(C(=O)c2c[nH]c3ncc(Cl)cc23)c1F
Procedure, shortened: as §1

[8] = compound: CCCc1cc(C)[nH]c(=O)c1CNC(=O)c1cc(-c2ccnc(N3CCN(C)CC3)c2)cc2c1cnn2C(C)C
Procedure, shortened: as §1

[9] = compound: CCN(CCCOc1ccc2c(Nc3cc(CC(=O)Nc4cccc(F)c4)[nH]n3)ncnc2c1)CCOP(=O)(O)O [barasertib]
Procedure, shortened: as §1

[10] = compound: CCN(CC)Cc1ccc2cc(COC(=O)Nc3ccc(C(=O)NO)cc3)ccc2c1 [givinostat]
Procedure, shortened: as §1

Measured: log2 fold change

RASA2 (UniProt Q15283)
inactive: [1] -0.031 | [2] -0.03 | [3] -0.32 | [4] -0.28 | [5] -0.053 | [6] -0.217 | [7] -0.438 | [8] -0.001 | [9] 0.04

RBM12 (UniProt Q9NTZ6)
inactive: [1] 0.016 | [2] -0.101 | [3] 0.057 | [4] 0.116 | [5] -0.085 | [6] 0.058 | [7] 0.136 | [8] 0.008 | [10] 0.062 | [9] 0.122

RANBP2 (UniProt P49792)
inactive: [1] 0.089 | [2] -0.07 | [3] -0.041 | [4] 0.04 | [5] 0.221 | [6] -0.086 | [7] 0.03 | [8] -0.072 | [10] 0.046 | [9] 0.036

RALGAPB (UniProt Q86X10)
inactive: [1] 0 | [2] -0.085 | [3] 0.049 | [4] 0.072 | [5] 0.033 | [7] 0.037 | [8] 0.084 | [9] 0.016

RAB18 (UniProt Q9NP72)
inactive: [1] 0.017 | [2] 0.007 | [3] -0.001 | [4] -0.038 | [5] -0.015 | [6] -0.039 | [7] 0.017 | [8] -0.009 | [10] -0.003 | [9] -0.003

RBBP5 isoform 2 (UniProt Q15291)
inactive: [1] 0.025 | [2] -0.05 | [3] -0.074 | [5] -0.018 | [6] 0.092 | [7] -0.004 | [8] -0.056 | [10] -0.144 | [9] -0.023

RBM28 (UniProt Q9NW13)
inactive: [1] -0.023 | [2] 0.022 | [3] 0.095 | [5] 0.409 | [7] 0.295 | [8] 0.101 | [10] 0.302 | [9] 0.086

RAMAC (UniProt Q9BTL3)
inactive: [1] 0.01 | [2] 0.045 | [3] -0.083 | [4] 0.017 | [5] 0.032 | [6] 0.03 | [7] -0.063 | [8] -0.018 | [10] 0.041 | [9] -0.043

RAB30 (UniProt Q15771)
inactive: [2] 0.006 | [3] -0.046 | [4] -0.001 | [5] -0.069 | [6] 0.03 | [7] -0.077 | [8] 0 | [10] 0.017 | [9] -0.016

RACK1 (UniProt D6RHH4)
inactive: [1] -0.618 | [3] -0.299 | [5] 0.173 | [6] -0.014 | [7] -0.286 | [8] -0.139 | [10] 0.027 | [9] 0.031

RBM14 (UniProt Q96PK6)
inactive: [2] 0.011 | [3] -0.1 | [4] -0.078 | [6] 0.132 | [7] 0.299 | [8] 0.041 | [10] 0.178 | [9] 0.094

RAPGEF4 (UniProt Q8WZA2)
inactive: [1] -0.046 | [4] -0.235 | [5] 0.245 | [6] -0.267 | [8] -0.203 | [10] 0.248 | [9] 0.041

RAB28 (UniProt P51157)
inactive: [2] -0.217 | [4] 0.043 | [6] -0.038 | [10] -0.058

RBBP4 isoform 2 (UniProt Q09028)
inactive: [8] -0.06 | [10] 0.059 | [9] -0.011

RBKS (UniProt Q9H477)
inactive: [2] 0.019 | [3] 0.038 | [6] -0.155 | [7] -0.029 | [8] -0.131

RAB3B (UniProt P20337)
inactive: [1] -0.114 | [2] 0.23 | [3] -0.002 | [7] -0.169 | [10] -0.077

Random excerpt: two entries already listed.
RAPGEF4 (UniProt Q8WZA2)
inactive: [1] -0.046 | [4] -0.235 | [5] 0.245 | [6] -0.267 | [8] -0.203 | [10] 0.248 | [9] 0.041

RBKS (UniProt Q9H477)
inactive: [2] 0.019 | [3] 0.038 | [6] -0.155 | [7] -0.029 | [8] -0.131

The listing continues.

RAB11FIP5 (UniProt Q9BXF6)
inactive: [2] 0 | [3] 0.027 | [7] -0.089

RABEP2 (UniProt Q9H5N1)
inactive: [2] -0.089 | [10] 0.001

RAPGEF1 isoform 3 (UniProt Q13905)
inactive: [1] 0.012 | [8] -0.074 | [9] -0.04

R3HDM4 (UniProt Q96D70)
inactive: [1] -0.404 | [3] 0 | [5] 0.042 | [6] 0.1 | [7] 0.017 | [8] 0.221 | [10] -0.004 | [9] -0.013

RBFA (UniProt Q8N0V3)
inactive: [3] 0.143 | [7] 0.108

RAPGEF6 isoform 4 (UniProt Q8TEU7)
inactive: [1] 0.075 | [2] 0.005 | [4] -0.029 | [5] -0.025 | [6] -0.103 | [8] 0.242 | [10] 0.026 | [9] 0.075

RALGPS2 (UniProt Q86X27)
inactive: [4] -0.234 | [6] 0.023 | [8] -0.128 | [10] -0.147 | [9] -0.116
active: [5] 1.06

RASSF3 (UniProt Q86WH2)
inactive: [2] 0.002 | [3] -0.032 | [6] -0.066 | [7] -0.042 | [8] 0.035 | [10] 0.057 | [9] 0.016

RAD17 (UniProt O75943)
inactive: [4] -0.015

RABGAP1L isoform 5 (UniProt Q5R372)
inactive: [1] -0.106 | [3] -0.047 | [4] -0.055 | [5] -0.009 | [7] -0.016 | [8] -0.197 | [10] -0.013 | [9] 0

RAD51D (UniProt O75771)
inactive: [2] -0.078 | [3] 0.047 | [4] 0.088 | [6] -0.33 | [7] 0.037 | [8] -0.034 | [10] -0.117 | [9] -0.023

RBCK1 (UniProt Q9BYM8)
inactive: [3] -0.093 | [5] -0.104 | [6] -0.04 | [7] 0.184 | [10] 0.008

RAP1B (UniProt F5GWU8)
inactive: [2] 0.473 | [3] -0.115 | [4] -0.197 | [6] 0.11 | [7] 0.002

RALBP1 (UniProt Q15311)
inactive: [1] -0.093 | [3] -0.101 | [4] -0.084 | [5] 0.238 | [6] -0.335 | [7] 0.022
